Reference: article doi:10.1101/2021.01.21.427388
Like-named read-outs stand apart in the source and are kept apart here. These are yes or no findings as the source states them, for the method shown. In cells and extracts the contact can be indirect.

Sequences of proteins named here, by UniProt entry; tags and fusion partners are left off.
UniProt Q92508: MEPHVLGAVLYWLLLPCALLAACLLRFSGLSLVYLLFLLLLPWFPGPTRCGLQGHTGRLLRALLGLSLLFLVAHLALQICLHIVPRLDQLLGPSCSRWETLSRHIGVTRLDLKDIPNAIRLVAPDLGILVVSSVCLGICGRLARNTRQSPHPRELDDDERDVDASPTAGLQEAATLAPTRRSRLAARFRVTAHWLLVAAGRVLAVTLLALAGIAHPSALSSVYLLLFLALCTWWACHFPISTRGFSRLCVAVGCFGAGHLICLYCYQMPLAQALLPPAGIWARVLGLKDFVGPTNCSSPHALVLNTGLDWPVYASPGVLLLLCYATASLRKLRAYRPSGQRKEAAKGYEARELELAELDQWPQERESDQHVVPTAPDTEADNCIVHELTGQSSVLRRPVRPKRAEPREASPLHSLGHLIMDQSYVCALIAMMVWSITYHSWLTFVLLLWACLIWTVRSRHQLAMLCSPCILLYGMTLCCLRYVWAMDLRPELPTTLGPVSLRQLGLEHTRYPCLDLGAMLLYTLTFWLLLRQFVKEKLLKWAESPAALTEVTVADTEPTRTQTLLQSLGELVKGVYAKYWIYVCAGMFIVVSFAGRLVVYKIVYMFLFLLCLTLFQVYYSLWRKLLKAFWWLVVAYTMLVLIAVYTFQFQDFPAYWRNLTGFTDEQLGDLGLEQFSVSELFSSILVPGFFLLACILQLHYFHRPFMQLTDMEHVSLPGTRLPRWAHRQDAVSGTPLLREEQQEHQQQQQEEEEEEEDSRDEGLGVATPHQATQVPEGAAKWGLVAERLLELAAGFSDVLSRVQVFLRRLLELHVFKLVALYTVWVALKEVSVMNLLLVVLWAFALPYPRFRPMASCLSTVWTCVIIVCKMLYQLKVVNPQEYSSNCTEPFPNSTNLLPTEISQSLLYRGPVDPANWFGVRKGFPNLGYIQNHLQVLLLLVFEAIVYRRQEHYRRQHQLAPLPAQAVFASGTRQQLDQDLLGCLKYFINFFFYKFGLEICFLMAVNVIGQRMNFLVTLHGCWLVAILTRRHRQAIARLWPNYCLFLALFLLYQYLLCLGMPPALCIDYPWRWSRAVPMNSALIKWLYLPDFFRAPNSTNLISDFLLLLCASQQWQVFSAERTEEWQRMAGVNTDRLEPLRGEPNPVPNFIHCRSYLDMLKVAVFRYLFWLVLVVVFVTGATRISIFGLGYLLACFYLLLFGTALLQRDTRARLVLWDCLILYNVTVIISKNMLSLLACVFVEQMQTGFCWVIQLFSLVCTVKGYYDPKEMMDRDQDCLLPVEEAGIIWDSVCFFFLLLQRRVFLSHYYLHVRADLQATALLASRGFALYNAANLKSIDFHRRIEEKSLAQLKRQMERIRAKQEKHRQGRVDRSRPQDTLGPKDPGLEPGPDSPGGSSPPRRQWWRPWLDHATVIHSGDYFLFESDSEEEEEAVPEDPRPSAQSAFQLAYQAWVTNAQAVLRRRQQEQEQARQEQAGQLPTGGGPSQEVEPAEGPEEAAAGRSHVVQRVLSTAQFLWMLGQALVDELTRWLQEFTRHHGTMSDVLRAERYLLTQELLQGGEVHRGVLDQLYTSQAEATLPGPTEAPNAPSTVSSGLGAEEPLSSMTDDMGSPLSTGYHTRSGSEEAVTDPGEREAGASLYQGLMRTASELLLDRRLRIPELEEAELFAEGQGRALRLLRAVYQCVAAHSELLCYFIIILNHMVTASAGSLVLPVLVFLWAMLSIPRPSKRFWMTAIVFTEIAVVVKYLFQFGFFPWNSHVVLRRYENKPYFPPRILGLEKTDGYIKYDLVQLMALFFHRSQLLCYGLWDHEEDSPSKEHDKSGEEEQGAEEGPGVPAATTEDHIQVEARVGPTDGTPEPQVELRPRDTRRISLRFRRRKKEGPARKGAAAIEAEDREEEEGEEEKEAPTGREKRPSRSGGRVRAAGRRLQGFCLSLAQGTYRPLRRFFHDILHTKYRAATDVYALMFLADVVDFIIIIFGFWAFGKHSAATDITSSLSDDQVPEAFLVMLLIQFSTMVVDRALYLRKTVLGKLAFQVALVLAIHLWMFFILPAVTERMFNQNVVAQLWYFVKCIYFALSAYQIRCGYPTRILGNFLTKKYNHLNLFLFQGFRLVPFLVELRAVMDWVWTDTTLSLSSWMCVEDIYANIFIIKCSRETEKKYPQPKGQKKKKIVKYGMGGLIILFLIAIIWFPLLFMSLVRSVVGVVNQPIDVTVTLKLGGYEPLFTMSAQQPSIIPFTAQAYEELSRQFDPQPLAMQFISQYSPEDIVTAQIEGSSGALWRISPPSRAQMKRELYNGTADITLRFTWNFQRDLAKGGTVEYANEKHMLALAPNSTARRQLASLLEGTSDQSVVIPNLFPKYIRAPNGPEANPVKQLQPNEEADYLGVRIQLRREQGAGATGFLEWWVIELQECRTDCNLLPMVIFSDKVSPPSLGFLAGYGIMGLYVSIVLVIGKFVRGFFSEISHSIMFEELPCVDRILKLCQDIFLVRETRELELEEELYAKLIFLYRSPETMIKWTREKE
UniProt Q12791: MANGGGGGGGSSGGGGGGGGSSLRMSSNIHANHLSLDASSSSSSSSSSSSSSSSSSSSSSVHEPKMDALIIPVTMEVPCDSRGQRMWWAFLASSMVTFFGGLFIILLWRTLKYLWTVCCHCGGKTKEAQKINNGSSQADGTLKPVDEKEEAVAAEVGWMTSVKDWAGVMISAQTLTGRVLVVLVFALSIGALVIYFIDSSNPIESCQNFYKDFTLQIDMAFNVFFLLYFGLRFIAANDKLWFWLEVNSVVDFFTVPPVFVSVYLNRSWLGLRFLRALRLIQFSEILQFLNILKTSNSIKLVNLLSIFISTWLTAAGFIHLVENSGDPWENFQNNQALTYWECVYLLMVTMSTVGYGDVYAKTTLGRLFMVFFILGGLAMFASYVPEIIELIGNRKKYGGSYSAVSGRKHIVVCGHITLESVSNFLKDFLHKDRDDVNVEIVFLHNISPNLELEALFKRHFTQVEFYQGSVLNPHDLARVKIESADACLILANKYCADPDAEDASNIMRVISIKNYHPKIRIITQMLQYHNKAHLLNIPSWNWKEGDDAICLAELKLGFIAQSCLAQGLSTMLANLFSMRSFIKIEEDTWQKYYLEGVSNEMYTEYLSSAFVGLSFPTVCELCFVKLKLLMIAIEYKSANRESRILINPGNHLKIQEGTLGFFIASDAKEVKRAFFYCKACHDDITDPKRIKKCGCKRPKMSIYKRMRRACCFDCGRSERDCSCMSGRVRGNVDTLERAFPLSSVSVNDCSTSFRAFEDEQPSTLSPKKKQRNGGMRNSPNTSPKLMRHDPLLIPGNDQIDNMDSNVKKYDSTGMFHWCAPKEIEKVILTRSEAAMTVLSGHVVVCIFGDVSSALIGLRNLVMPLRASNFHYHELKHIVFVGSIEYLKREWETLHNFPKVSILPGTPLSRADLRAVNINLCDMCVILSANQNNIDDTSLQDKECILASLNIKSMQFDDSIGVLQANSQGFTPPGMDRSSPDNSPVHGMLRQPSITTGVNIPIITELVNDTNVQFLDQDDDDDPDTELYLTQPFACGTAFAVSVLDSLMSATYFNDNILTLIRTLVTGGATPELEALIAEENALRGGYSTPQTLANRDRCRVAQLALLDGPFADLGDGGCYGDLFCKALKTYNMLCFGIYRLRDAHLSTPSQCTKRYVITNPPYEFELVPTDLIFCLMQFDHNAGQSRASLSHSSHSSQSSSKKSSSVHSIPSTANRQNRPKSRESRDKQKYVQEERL

How the values were obtained:
Assay in all cases: co-IP
[1] = molecular target: Piezo1 (human (endogenous in human atrial fibroblasts)) (UniProt Q92508)
[2] = molecular target: Piezo1 (human (endogenous in human atrial fibroblasts)) (UniProt Q92508); remark: listed apart in the source
[3] = molecular target: Ca2+-activated potassium channel of large conductance (BKCa) (human (endogenous in human atrial fibroblasts)) (UniProt Q12791)
[4] = molecular target: Ca2+-activated potassium channel of large conductance (BKCa) (human (endogenous in human atrial fibroblasts)) (UniProt Q12791); remark: listed apart in the source

Ca2+-activated potassium channel of large conductance (BKCa) (from UniProt Q12791 1-1236)
binding [1]: no binding
binding [2]: no binding

Piezo1 (from UniProt Q92508 1-2521)
binding [3]: no binding
binding [4]: no binding
